Measured values published in PubChem BioAssay (NCATS).
Where “and” joins values, the source holds several entries; their conditions need not be identical. Equal entries are not always repeated. Some of the results follow. Shown are side measurements of this screen, not its main read-out; they come without a call. The list favours compounds with an active or inconclusive main result. For some of these results: Words in brackets tell the shape of the fitted curve; partial curves, single points and poor fits give uncertain potencies.

Experiments:
[1] = qHTS assay for small molecule antagonists of androgen receptor signaling (AID 588516); conditions: AR-UAS-bla HEK293, beta-lactamase ratio, antagonist mode, 16 h
Outline: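 Antagonist-mode qHTS: inhibition of R1881 (10 nM)-driven beta-lactamase expression in GripTite HEK 293 cells is measured after 16 h; values are Hill-derived IC50s normalized between R1881 and DMSO wells.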

[2] = qHTS assay for small molecule antagonists of glucocorticoid receptor signaling (AID 588533); conditions: HeLa MMTV-bla, GRE beta-lactamase ratio, antagonist mode, 18 h; measured here: W530 channel AC50
[3] = qHTS assay for small molecule antagonists of peroxisome proliferator-activated receptor delta signaling (AID 588535); conditions: HEK293T PPARd-UAS-bla, beta-lactamase FRET ratio, 18 h; 460 nm channel;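 note: cells co-treated with a PPAR-delta agonist as stimulator during compound exposure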
Outline: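 Reporter: UAS-bla under PPAR-delta response element, HEK293T host. Medium: 2% charcoal/dextran FBS. Dosing: titration, 18 hrs, 37 C. Detection: CCF4, 2 hrs RT, 405 ex/460 and 530 em.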

[4] = qHTS assay for small molecule antagonists of peroxisome proliferator-activated receptor gamma signaling (AID 588537); conditions: HEK293 PPARg-UAS-bla, beta-lactamase ratio, antagonist mode; measured here: W460 blue channel
Outline: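 We seeded GeneBLAzer HEK293 reporter cells at 3000 per well, allowed 6-6.5 h attachment at 37 C, then co-treated with test compound titrations and 50 nM rosiglitazone overnight (16 h). Inhibition was quantified from 460/530 nm emission ratios.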

[5] = qHTS assay for small molecule agonists of retinoid X receptor alpha signaling (AID 588544); conditions: HEK293T RXRa-UAS-bla, beta-lactamase reporter, 18 h; 530 nm emission
[6] = qHTS assay for small molecule antagonists of retinoid X receptor alpha signaling (AID 588546); conditions: HEK293T RXRa-UAS-bla, beta-lactamase ratio, antagonist mode; measured here: W530 green channel, cytotoxicity proxy;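 note: cells stimulated with 9-cis-retinoic acid as agonist; % is set by controls: 0 for no effect and ±100 for the full control effect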
Outline: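 Beta-lactamase reporter inhibition, read as CCF4 fluorescence ratio (ex 405, em 460/530 nm) after 2 h at RT. HEK293T UAS-bla cells, 2500/well, were stimulated with 9-cis-RA at 500 or 100 nM final alongside test compound for 18 h at 37 C.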

[7] = qHTS Assay for Modulators of Human Peripheral Myelin Protein 22 (PMP22) Expression/Activity (AID 1967); conditions: Cell-based PMP22 reporter, dual-color luciferase ratio; measured here: red reporter channel AC50; EF-alpha promoter control reporter in MSC80 mouse Schwann cells
Outline: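 Quantitative HTS in a mouse Schwann cell line expressing dual click beetle luciferases: Pmp22 promoter (green) and control EF-alpha promoter (red). After 24h treatment, corrected green/red signal ratio gave %Activity relative to untreated cells.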

[8] = S16 Schwann cell PMP22 intronic element beta-lactamase assay (AID 624044); conditions: S16 rat Schwann cells, PMP22 element beta-lactamase FRET, 24 h
Outline: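 Rat S16 Schwann cells with beta-Lac driven by a PMP22 intronic element, compound-treated 24 h at 37 °C. LiveBLAzer FRET B/G read: 460 nm normalized to potassium clavulanate vs DMSO; 535 nm FRET as viability; concentration-effect curves classified.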

[9] = Nrf2 qHTS screen for inhibitors: Validation (AID 493153); conditions: A549 ARE-Fluc reporter, 18-24 h; AC50: CellTiter-Fluor fluorescence read, measured here: cytotoxicity CellTiter-Fluor AC50; viability change: measured here: cytotoxicity max response
Outline: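 Luminescence from an ARE-firefly luciferase reporter in A549 cells gives Nrf2 inhibition; an earlier CellTiter-Fluor fluorescent read flags cytotoxicity. Cells in 5% FBS OPTI-MEM received compound dilution series for 18-24 h at 37°C.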

[10] = qHTS Validation Assay to Find Inhibitors of Chronic Active B-Cell Receptor Signaling (AID 485345); conditions: ABC-DLBCL cells, chronic BCR signaling reporter; measured here: CBG/CBR ratio read-out
Outline: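 TMD8 ABC-DLBCL cells with dox-inducible green luciferase–IκBα fusion and red native luciferase; compounds 46 uM–3 nM, 4 h at 37C with doxycycline in 0.5% FBS IMDM. Green/red ratio normalized to basal and 10 uM MG-132.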

[11] = qHTS assay for small molecule antagonists of vitamin D receptor signaling (AID 588541); conditions: HEK293T VDR-UAS-bla, beta-lactamase ratio, antagonist mode; measured here: W460 blue channel (cell viability)
[12] = measured here: W460 blue channel fit
[13] = measured here: W530 green channel, cytotoxicity/artifact

For `Cc1cc(N=Nc2ccccc2C)ccc1N`, the AC50 [1, 12] was 44.7 µM [falling, partial curve, poor fit], the AC50 [1, 13] was 22.4 µM [rising, single point] and the AC50 [2] was 44.7 µM [falling, partial curve, poor fit]. The max response [3] was -71.5%, the AC50 [4] was 25.1 µM [falling, partial curve, poor fit] and 39.8 nM [falling, full curve, poor fit] and the max response [5] was 9.96% and 3.38%. For the same compound, the max response [6] was -12.9%.

With `CCCCC/C=C\C/C=C\C/C=C\C/C=C\CCCC(=O)NCC(=O)O` the AC50 [7] was 84.9 µM [falling, single point], the AC50 ([8]; measured here: 460 nm blue channel) was 0.251 µM [falling, full curve, poor fit] and the AC50 ([8]; measured here: 530 nm viability channel) was 0.282 µM [falling, full curve].

For `O=C(NC(=O)c1c(F)cccc1F)Nc1cc(Cl)c(OC(F)(F)C(F)F)c(Cl)c1`, the AC50 [1, 12] was 35.5 µM [falling, partial curve, poor fit], the AC50 [1, 13] was 35.5 µM [rising, partial curve, poor fit] and the max response [3] was -19.3%.

With `Cc1ccc(O)cc1` the AC50 [1, 12] was 50.1 µM [falling, partial curve, poor fit].

Work on `CCN(CCCl)Cc1ccccc1Br` yielded a viability change [9] of 1.79%.

`N[C@@H](Cn1ccc(=O)c(O)c1)C(=O)O` gave a viability change [9] of -6.93%.

In the case of `CN(C)c1ccc(N)cc1`, the AC50 [1, 12] is reported as 56.2 µM [falling, partial curve, poor fit].

For `O=c1ccc(=O)[nH][nH]1`, the AC50 [1, 12] was 0.251 µM [rising, full curve, poor fit].

For `CC(=O)[C@H]1CC[C@H]2[C@@H]3CC[C@H]4C[C@H](O)CC[C@]4(C)[C@H]3C(=O)C[C@]12C`, the viability change [9] was -5.42%.

With `CC(COc1ccccc1)N(CCCl)Cc1ccccc1` (configuration not stated) the viability change [9] was -5.14%, the max response [3] was 40% and 68.2% and the AC50 [4] was 70.8 µM [rising, single point] and 1.41 nM [falling, full curve, poor fit].

With `C=CCN1CCc2cccc3c2[C@H]1Cc1ccc(O)c(O)c1-3` the AC50 [10] was 29.1 µM [falling, single point].

In the case of `CCOP(=O)(OCC)SCS(=O)(=O)C(C)(C)C`, the AC50 [1, 12] is reported as 28.2 µM [rising, single point].

For `O=C1C2(Cl)C3(Cl)C4(Cl)C(Cl)(Cl)C5(Cl)C3(Cl)C1(Cl)C5(Cl)C24Cl` (configuration not stated), the AC50 [1, 12] was 50.1 µM [falling, partial curve, poor fit] and 39.8 µM [falling, partial curve], the AC50 [1, 13] was 70.8 µM [falling, single point] and the AC50 [2] was 39.8 µM [falling, partial curve]. The max response [3] was -54.4% and -45.3% and -18%, the AC50 [4] was 50.1 µM [falling, partial curve, poor fit] and 25.1 µM [falling, full curve] and the AC50 [11] was 39.8 µM [falling, partial curve, poor fit] and 22.4 µM [falling, partial curve, poor fit]. The max response [5] was -49.8% and 37.5% and -8.37% and the max response [6] was -33.6% and -2.56% and -6.66%.

For `COP(=S)(OC)Oc1cc(Cl)c(Cl)cc1Cl`, the AC50 [1, 12] was 44.7 µM [falling, single point] and the AC50 [1, 13] was 44.7 µM [rising, single point].

In the case of `Oc1cc(Cl)c(Cl)c(Cl)c1`, the AC50 [1, 13] is reported as 50.1 µM [rising, single point], the AC50 [2] is reported as 17.8 µM [falling, partial curve, poor fit] and the max response [5] is reported as 8.93%. It also gave a max response [6] of -11.8%.

With `Nc1ccc([N+](=O)[O-])cc1[N+](=O)[O-]` the AC50 [1, 12] was 89.1 µM [falling, partial curve, poor fit], the max response [3] was -11.3% and the max response [6] was -11.9%.

For `CC/C(=C(\c1ccc(O)cc1)c1ccc(OCCN(C)C)cc1)c1ccccc1`, the AC50 [1, 12] was 50.1 µM [falling, single point], the AC50 [2] was 50.1 µM [falling, single point] and the max response [3] was -93.6%. The AC50 [11] was 39.8 µM [falling, partial curve].

For `CCCCC(CC)COC(=O)c1ccc(C(=O)OCC(CC)CCCC)c(C(=O)OCC(CC)CCCC)c1` (configuration not stated), the AC50 [1, 12] was 12.6 µM [falling, partial curve, poor fit], the max response [3] was -2% and the AC50 [4] was 70.8 µM [rising, single point].

With `CC[C@H]1CCCC(O[C@H]2CC[C@H](N(C)C)[C@@H](C)O2)[C@@H](C)C(=O)C2=C[C@@H]3[C@@H](C=C[C@@H]4C[C@@H](O[C@@H]5O[C@@H](C)[C@H](OC)[C@@H](OC)[C@H]5OC)C[C@@H]34)[C@@H]2CC(=O)O1` (some centres not stated) the AC50 [1, 13] was 15.8 µM [rising, full curve], the max response [3] was 165% and the AC50 [11] was 7.08 µM [rising, full curve, poor fit]. For the same compound, the max response [5] was 28.1% and the max response [6] was -0.989%.

In the case of `c1cc(OCC2CO2)cc(OCC2CO2)c1` (configuration not stated), the AC50 [1, 13] is reported as 25.1 µM [rising, full curve, poor fit], the AC50 [2] is reported as 12.6 µM [falling, full curve, poor fit] and the max response [3] is reported as -82.3%. The AC50 [11] was 44.7 µM [falling, single point], the max response [5] was 66.4% and 6.12% and the max response [6] was 49.6%.

For `C=CC(=O)NCNC(=O)C=C`, the AC50 [1, 12] was 44.7 µM [rising, single point], the max response [3] was 108% and the AC50 [4] was 50.1 µM [rising, single point].

In the case of `CO/C=C(/C(=O)OC)c1ccccc1Oc1cc(Oc2ccccc2C#N)ncn1`, the AC50 [1, 12] is reported as 44.7 µM [falling, partial curve, poor fit], the AC50 [2] is reported as 50.1 µM [falling, partial curve, poor fit] and the max response [3] is reported as -30.5%. It also gave a max response [5] of 24.4% and a max response [6] of 6.96%.
